# Measurements as given in the supplement of paper PMC10032668.
# Sequences of proteins named here, by UniProt entry; tags and fusion partners are left off.
# FAM168B, A1KXE4, UniProt A1KXE4, whole entry: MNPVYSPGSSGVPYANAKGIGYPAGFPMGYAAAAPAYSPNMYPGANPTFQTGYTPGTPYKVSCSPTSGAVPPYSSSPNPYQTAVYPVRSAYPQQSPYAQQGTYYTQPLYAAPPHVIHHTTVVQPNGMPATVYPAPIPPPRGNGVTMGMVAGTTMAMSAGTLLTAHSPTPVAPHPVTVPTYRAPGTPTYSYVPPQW
# GNB1, P62873, UniProt P62873, whole entry: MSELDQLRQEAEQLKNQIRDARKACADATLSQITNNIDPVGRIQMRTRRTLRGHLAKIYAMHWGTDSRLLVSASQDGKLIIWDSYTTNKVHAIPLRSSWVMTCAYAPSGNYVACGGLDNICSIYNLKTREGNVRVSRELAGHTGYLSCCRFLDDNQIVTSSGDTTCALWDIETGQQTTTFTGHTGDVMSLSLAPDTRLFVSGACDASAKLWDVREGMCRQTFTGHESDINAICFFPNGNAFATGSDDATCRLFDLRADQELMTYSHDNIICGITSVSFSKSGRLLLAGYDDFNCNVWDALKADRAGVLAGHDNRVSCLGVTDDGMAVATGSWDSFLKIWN
# PCBP2, Q15366, UniProt Q15366, whole entry: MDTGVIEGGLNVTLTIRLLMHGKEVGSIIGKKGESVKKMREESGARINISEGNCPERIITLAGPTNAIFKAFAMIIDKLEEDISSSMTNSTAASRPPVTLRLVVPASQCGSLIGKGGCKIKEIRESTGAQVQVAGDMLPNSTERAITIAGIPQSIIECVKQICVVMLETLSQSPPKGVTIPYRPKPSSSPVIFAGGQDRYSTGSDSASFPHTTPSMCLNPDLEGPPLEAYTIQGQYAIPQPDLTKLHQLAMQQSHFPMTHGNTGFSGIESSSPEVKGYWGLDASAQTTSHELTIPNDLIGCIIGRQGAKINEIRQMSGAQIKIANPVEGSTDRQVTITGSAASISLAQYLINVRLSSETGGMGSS
# GLYATL1B, A0A0U1RQE8, UniProt A0A0U1RQE8, whole entry: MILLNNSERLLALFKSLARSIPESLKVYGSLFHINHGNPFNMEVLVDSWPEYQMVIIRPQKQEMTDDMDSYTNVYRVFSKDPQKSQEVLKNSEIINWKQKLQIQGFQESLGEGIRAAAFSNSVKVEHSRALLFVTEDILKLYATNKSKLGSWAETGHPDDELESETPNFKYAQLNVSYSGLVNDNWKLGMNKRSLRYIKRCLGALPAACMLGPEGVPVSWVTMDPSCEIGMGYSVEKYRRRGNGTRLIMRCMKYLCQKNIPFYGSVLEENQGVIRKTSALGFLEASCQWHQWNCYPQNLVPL
# LARP4, Q71RC2, UniProt Q71RC2, whole entry: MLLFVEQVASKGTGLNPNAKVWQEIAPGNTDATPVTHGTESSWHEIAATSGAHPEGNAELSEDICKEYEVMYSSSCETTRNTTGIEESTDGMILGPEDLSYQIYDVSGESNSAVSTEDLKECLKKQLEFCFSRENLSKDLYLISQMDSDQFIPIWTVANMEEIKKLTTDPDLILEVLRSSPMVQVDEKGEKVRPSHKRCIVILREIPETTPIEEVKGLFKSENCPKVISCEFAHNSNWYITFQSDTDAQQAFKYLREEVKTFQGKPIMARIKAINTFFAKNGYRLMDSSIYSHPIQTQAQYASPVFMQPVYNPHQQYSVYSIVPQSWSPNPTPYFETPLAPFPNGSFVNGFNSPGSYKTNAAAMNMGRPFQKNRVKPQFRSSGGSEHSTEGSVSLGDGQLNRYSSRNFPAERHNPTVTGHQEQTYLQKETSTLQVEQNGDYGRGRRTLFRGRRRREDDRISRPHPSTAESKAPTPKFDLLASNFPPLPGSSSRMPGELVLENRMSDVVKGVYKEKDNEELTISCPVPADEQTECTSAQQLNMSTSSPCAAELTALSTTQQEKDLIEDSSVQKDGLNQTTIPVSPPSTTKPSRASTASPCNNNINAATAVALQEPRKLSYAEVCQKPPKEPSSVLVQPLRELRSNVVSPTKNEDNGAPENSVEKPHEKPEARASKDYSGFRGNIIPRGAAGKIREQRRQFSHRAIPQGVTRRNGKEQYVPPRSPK
# UBQLN1, Q9UMX0, UniProt Q9UMX0, whole entry: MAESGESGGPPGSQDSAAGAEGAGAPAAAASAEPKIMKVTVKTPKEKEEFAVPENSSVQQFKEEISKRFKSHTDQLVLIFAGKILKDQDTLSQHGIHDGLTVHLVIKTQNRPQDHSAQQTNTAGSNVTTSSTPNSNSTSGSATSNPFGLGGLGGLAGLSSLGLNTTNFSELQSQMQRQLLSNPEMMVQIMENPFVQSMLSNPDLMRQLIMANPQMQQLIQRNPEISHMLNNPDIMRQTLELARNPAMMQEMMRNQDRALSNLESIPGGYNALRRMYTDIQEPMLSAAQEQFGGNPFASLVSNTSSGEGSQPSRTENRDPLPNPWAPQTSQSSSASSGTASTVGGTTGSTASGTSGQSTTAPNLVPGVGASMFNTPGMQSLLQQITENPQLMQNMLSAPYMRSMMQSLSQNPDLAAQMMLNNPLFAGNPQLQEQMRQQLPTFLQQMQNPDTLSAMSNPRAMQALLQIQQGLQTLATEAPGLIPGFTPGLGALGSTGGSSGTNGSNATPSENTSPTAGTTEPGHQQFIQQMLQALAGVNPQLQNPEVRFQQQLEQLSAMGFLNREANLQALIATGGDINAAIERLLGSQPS
# TUBB2B, Q9BVA1, UniProt Q9BVA1, whole entry: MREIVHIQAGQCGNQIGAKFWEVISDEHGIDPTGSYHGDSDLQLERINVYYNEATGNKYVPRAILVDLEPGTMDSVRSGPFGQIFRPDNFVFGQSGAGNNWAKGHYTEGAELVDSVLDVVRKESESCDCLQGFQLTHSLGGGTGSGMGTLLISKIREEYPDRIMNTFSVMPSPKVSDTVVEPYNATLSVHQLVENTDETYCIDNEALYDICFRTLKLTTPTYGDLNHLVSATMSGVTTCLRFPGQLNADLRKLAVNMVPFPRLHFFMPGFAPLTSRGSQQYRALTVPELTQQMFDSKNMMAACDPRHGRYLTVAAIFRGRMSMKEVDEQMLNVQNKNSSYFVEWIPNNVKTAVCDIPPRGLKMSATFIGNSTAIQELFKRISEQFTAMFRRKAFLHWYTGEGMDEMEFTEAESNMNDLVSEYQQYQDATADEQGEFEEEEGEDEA
# The other results are listed elsewhere or left out. The list holds hits alone, and they repeat only in part.
# Experiments:
# Assay in all cases: PRISMA enrichment of interactor (LFQ) in peptide spot vs all other peptide spots (log2 fold change); higher = stronger / more specific binding of the interactor to the peptide
# [1] = biological target: FAM168B, A1KXE4
# Method: (§1)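 PRISMA: 15-aa overlapping tiles (offset 8 aa) of 60 microproteins, plus SOS1/GLUT1 control peptides, were spot-synthesized on cellulose membranes in triplicate. Membranes were incubated with benzonase-treated HEK293T lysate, and bound proteins were identified by LC-MS/MS with LFQ. Enrichment is the log2 fold change of each protein in one spot versus all other spots. Only interactors passing the significance cutoff are listed.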
# [2] = biological target: GNB1, P62873
# Method: as §1
# [3] = biological target: MRPL39, Q9NYK5
# Method: as §1
# [4] = biological target: MRPS5, P82675
# Method: as §1
# [5] = biological target: NACA
# Method: as §1
# [6] = biological target: PCBP2, Q15366
# Method: as §1
# [7] = biological target: PEBP1, P30086
# Method: as §1
# [8] = biological target: PRPF4, O43172
# Method: as §1
# [9] = biological target: PYCR2, Q96C36
# Method: as §1
# [10] = biological target: RPUSD4, Q96CM3
# Method: as §1
# [11] = biological target: SLU7, O95391
# Method: as §1
# [12] = biological target: SNRNP27, Q8WVK2
# Method: as §1
# [13] = biological target: TOR1AIP1, Q5JTV8
# Method: as §1
# [14] = biological target: GLYATL1B, A0A0U1RQE8
# Method: as §1
# [15] = biological target: HMGA2, P52926
# Method: as §1
# [16] = biological target: TACO1, Q9BSH4
# Method: as §1
# [17] = biological target: ELOVL5, Q9NYP7
# Method: as §1
# [18] = biological target: GDI2, P50395
# Method: as §1
# [19] = biological target: HADHB, P55084
# Method: as §1
# [20] = biological target: LARP4, Q71RC2
# Method: as §1
# [21] = biological target: NIPSNAP1, Q9BPW8
# Method: as §1
# [22] = biological target: PDF, Q9HBH1
# Method: as §1
# [23] = biological target: PHC2, Q8IXK0
# Method: as §1
# [24] = biological target: POP1, Q99575
# Method: as §1
# [25] = biological target: RNPS1, Q15287
# Method: as §1
# [26] = biological target: SHMT1, P34896
# Method: as §1
# [27] = biological target: SLC25A1, P53007
# Method: as §1
# [28] = biological target: SLC30A7, Q8NEW0
# Method: as §1
# [29] = biological target: UBQLN1, Q9UMX0
# Method: as §1
# [30] = biological target: ZNF593, O00488
# Method: as §1
# [31] = biological target: FGFR1, P11362
# Method: as §1
# [32] = biological target: MRPL11, Q9Y3B7
# Method: as §1
# [33] = biological target: NOL7, Q9UMY1
# Method: as §1
# [34] = biological target: NOP14, P78316
# Method: as §1
# [35] = biological target: TUBB2B, Q9BVA1
# Method: as §1
# [36] = biological target: ZGRF1, Q86YA3
# Method: as §1
binder,measurement,setting,value
LLGLMGTGPAWWVVS [ABR],PRISMA enrichment of interactor (log2),[1],4.23
same,PRISMA enrichment of interactor (log2),[2],7.36
same,PRISMA enrichment of interactor (log2),[3],4.64
same,PRISMA enrichment of interactor (log2),[4],5.64
same,PRISMA enrichment of interactor (log2),[5],5
same,PRISMA enrichment of interactor (log2),[6],6.99
same,PRISMA enrichment of interactor (log2),[7],5.09
same,PRISMA enrichment of interactor (log2),[8],4.34
same,PRISMA enrichment of interactor (log2),[9],9.46
same,PRISMA enrichment of interactor (log2),[10],4.59
same,PRISMA enrichment of interactor (log2),[11],5.35
same,PRISMA enrichment of interactor (log2),[12],4.2
same,PRISMA enrichment of interactor (log2),[13],7.41
LYKERYSSVKEAWMK [TRDN-AS1_2],PRISMA enrichment of interactor (log2),[14],4.79
same,PRISMA enrichment of interactor (log2),[15],5.13
same,PRISMA enrichment of interactor (log2),[16],4.23
CSLKIPSARHFSWRK [PRR34-AS1],PRISMA enrichment of interactor (log2),[17],5.29
same,PRISMA enrichment of interactor (log2),[18],5.19
same,PRISMA enrichment of interactor (log2),[19],6.03
same,PRISMA enrichment of interactor (log2),[20],5.27
same,PRISMA enrichment of interactor (log2),[21],4.89
same,PRISMA enrichment of interactor (log2),[22],5.07
same,PRISMA enrichment of interactor (log2),[23],4.17
same,PRISMA enrichment of interactor (log2),[24],6.83
same,PRISMA enrichment of interactor (log2),[25],5.62
same,PRISMA enrichment of interactor (log2),[26],6.59
same,PRISMA enrichment of interactor (log2),[27],4.52
same,PRISMA enrichment of interactor (log2),[28],4.24
same,PRISMA enrichment of interactor (log2),[29],5.62
same,PRISMA enrichment of interactor (log2),[30],4.32
MDSTVILSCVRSKN [BANCR],PRISMA enrichment of interactor (log2),[31],8.27
same,PRISMA enrichment of interactor (log2),[32],4.19
same,PRISMA enrichment of interactor (log2),[33],4.08
same,PRISMA enrichment of interactor (log2),[34],4.99
same,PRISMA enrichment of interactor (log2),[35],6.26
same,PRISMA enrichment of interactor (log2),[36],4.1

# For convenience, some entries already given.
binder,measurement,setting,value
MDSTVILSCVRSKN [BANCR],PRISMA enrichment of interactor (log2),[34],4.99
same,PRISMA enrichment of interactor (log2),[35],6.26
